Source: article doi:10.1101/2025.02.23.639735 (bioRxiv, 2025)
No constants are given. Whether binding was seen depends on the method and setting. Some results given as binding are weak or reduced against the parent protein; the word gives no strength.

Biological target: T1, UPF2-AL (human, UniProt Q9HAU5 1015-1106, 15N-labelled (15N/13C for the assignments) in the NMR experiments)
T1 sequence (looked up): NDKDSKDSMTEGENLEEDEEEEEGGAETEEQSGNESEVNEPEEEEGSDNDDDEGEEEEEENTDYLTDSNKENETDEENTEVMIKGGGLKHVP
Assay: NMR titration

binding: binds weakly
B1: 3’hExofl (enzyme, UniProt Q8IV48 1-349)
chain: MEDPQSKEPAGEAVALALLESPRPEGGEEPPRPSPEETQQCKFDGQETKGSKFITSSASDFSDPVYKEIAITNGCINRMSKEELRAKLSEFKLETRGVKDVLKKRLKNYYKKQKLMLKESNFADSYYDYICIIDFEATCEEGNPPEFVHEIIEFPVVLLNTHTLEIEDTFQQYVRPEINTQLSDFCISLTGITQDQVDRADTFPQVLKKVIDWMKLKELGTKYKYSLLTDGSWDMSKFLNIQCQLSRLKYPPFAKKWINIRKSYGNFYKVPRSQTKLTIMLEKLGMDYDGRPHCGLDDSKNIARIAVRMLQDGCELRINEKMHAGQLMSVSSSLPIEGTPPPQMPHFRK
